Hit rate of the full screen: of about 400,000 compounds, about 13,000 (3.2%) were called active. Inconclusive results, whose numbers are uncertain, are shown with a selection of clear calls. The call rests on the fitted dose curve; in most records, active means well fitted cell-killing curve with a large enough effect; inconclusive means small, poorly fitted or top-dose-only effect, or effect the other way; inactive means flat fitted curve, though single readings scatter. Potencies of inconclusive entries are doubtful fits and often do not repeat.
Assay: qHTS assay for MDR1-selective chemotherapeutics: Primary screen using the drug-selected MDR subline cells KB-V1; further: nearly all actives have a fitted effect of over 60% in size
Conditions: KB-V1 MDR cells viability, CellTiter-Glo, 72 h; activity change, negative = cytotoxicity: at 46.1 µM (top of the series)
Outline: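 Compound-treated KB-V1 multidrug-resistant cells, 72 h, 37 degrees C; viability by CellTiter-Glo. Fitted qHTS curves give the values.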
On the % scale 0 is the no-effect control and ±100 the full control effect; potency means the concentration at half of the fitted maximal effect.

Row | Compound | activity change, negative = cytotoxicity | Potency
1 | Cn1c(=O)c2c(nc(CN3CCCCC3)n2Cc2c(F)cccc2Cl)n(C)c1=O | inactive: -3.03% | 
2 | CN1OC[C@@H]2C(=O)N3CCc4c([nH]c5ccccc45)[C@@H]3C[C@@H]21 | inactive: -11.9% | 
3 | CCOC(=O)c1c(NC(=O)Cc2cccs2)sc(C)c1C |  | inconclusive: 13 µM [cytotoxic, partial curve]
4 | Cc1ccc(Nc2nc(C(=O)NCc3ccco3)cs2)cc1 |  | inconclusive: 20.6 µM [cytotoxic, single point]
5 | CCNC(=O)CP(=O)(c1ccccc1)c1ccccc1 |  | inconclusive: 20.6 µM [rising, single point]
6 | COc1cc(OC)cc(-c2cc3ccccc3c(=O)o2)c1 | inactive: -1.44% | 
7 | O=C(Nc1cccnc1)c1cc(-c2ccc(F)cc2)on1 |  | inconclusive: 3.66 µM [cytotoxic, partial curve, poor fit]
8 | COc1ccc(CC(=O)N/N=C/c2cc(Br)cs2)cc1OC |  | inconclusive: 16.4 µM [cytotoxic, partial curve, poor fit]
9 | CC(Sc1nc2ccc(C(=O)c3ccccc3)cc2[nH]1)C(=O)O (stereo not drawn) | inactive: 26.9% | 
10 | CC(NC(=O)c1ccncc1)c1ccc(Br)cc1 (stereo not drawn) |  | inconclusive: 0.184 µM [cytotoxic, full curve]
11 | Cn1c(=O)c2c(nc(SCCN3CCOCC3)n2Cc2cccc3ccccc23)n(C)c1=O |  | active: 4.11 µM
12 | Cc1cc(S(=O)(=O)N2CCCOC2CNC(=O)C(=O)NCc2cccs2)ccc1F (stereo not drawn) |  | inconclusive: 11.6 µM [cytotoxic, partial curve]
13 | CCOC(=O)c1cc2c(=O)n3ccccc3nc2n(Cc2ccco2)c1=NC(=O)c1cccc(F)c1 |  | inconclusive: 32.6 µM [cytotoxic, single point]
14 | C/C(Cl)=C/Cn1c(=O)c2c(nc(Br)n2Cc2ccccc2)n(C)c1=O | inactive: -6.68% | 
15 | CCCCCSc1nc(O)cc(=O)[nH]1 |  | inconclusive: 1.84 µM [rising, full curve, poor fit]
16 | O=C(C1CCN(S(=O)(=O)c2ccc(Cl)cc2)CC1)N1CCN(c2ccccn2)CC1 |  | inconclusive: 18.4 µM [cytotoxic, partial curve]
17 | CC(C)N(C(=O)CSc1nnc(Cc2csc(Nc3ccccc3)n2)o1)C(C)C |  | inconclusive: 6.51 µM [cytotoxic, partial curve, poor fit]
18 | CCOC(=O)/C=C1\SCC(=O)N1CC(=O)NCCOC |  | inconclusive: 29.1 µM [rising, single point]
19 | CC(=O)N1CCc2cc(Br)cc(S(=O)(=O)CCC(=O)N3CCN(c4ccccc4)CC3)c21 | inactive: 16.3% | 
20 | CC(=O)NC(c1ccc(F)c(F)c1)c1nc(-c2cccc(F)c2)cs1 (stereo not drawn) | inactive: 3.14% | 
21 | CC(=O)N1c2ccc(S(=O)(=O)N(C)CC(=O)Nc3cccc(C)c3)cc2CC1C (stereo not drawn) |  | inconclusive: 3.66 µM [cytotoxic, partial curve, poor fit]
22 | Cc1ccccc1CC(=O)OCC(=O)Nc1ccc(C)c(S(=O)(=O)N2CCCCC2)c1 |  | inconclusive: 29.1 µM [rising, single point]
23 | CCN(CC)c1cnn(C/C(=N\OC)c2ccc(Cl)cc2)c(=O)c1Br |  | inconclusive: 20.6 µM [cytotoxic, single point]

Row | Compound | activity change, negative = cytotoxicity | Potency
24 | CCC(C(=O)Nc1cc(C)nn1-c1nc(C)cc(C)n1)c1ccccc1 (stereo not drawn) |  | inconclusive: 20.6 µM [cytotoxic, partial curve, poor fit]
25 | CCC(=O)Nc1nc2ccccc2n1Cc1ccccc1Cl |  | inconclusive: 3.66 µM [cytotoxic, full curve]
26 | Cc1cccc(CNC(=O)C2CCC(=O)N(CC3CCCCC3)C2)c1 (stereo not drawn) |  | inconclusive: 11.6 µM [cytotoxic, partial curve, poor fit]
27 | COc1ccc(OC)c(C(=O)c2ccc(C(=O)N3CCCCC3)cc2)c1 |  | inconclusive: 23.1 µM [cytotoxic, partial curve, poor fit]
28 | CC(C)c1ccc(NS(=O)(=O)c2ccc3[nH]cc(C(=O)NCC4CCCO4)c(=O)c3c2)cc1 (stereo not drawn) |  | inconclusive: 29.1 µM [rising, single point]
29 | COC(=O)C1(C(O)C(=O)c2ccc(C)cc2C)CCCCC1 (stereo not drawn) |  | inconclusive: 20.6 µM [cytotoxic, partial curve, poor fit]
30 | c1ccc(Cn2nnnc2C(c2cccs2)N2CCSCC2)cc1 (stereo not drawn) |  | inconclusive: 25.9 µM [cytotoxic, single point]
31 | CC(/C=C/c1ccccc1)=N\NC(=O)c1cc(C)nc2ccccc12 |  | inconclusive: 29.1 µM [cytotoxic, single point]
32 | CN(C)S(=O)(=O)c1ccc2c(c1)N(CC(=O)Nc1ccc(F)cc1)C(=O)CS2 | inactive: 5.37% | 
33 | Cc1cccc(OCC(O)Cn2c(N3CCCCC3)nc3c2c(=O)[nH]c(=O)n3C)c1 (stereo not drawn) |  | inconclusive: 23.1 µM [cytotoxic, single point]
34 | CCN(CCCC(=O)c1ccc(F)cc1)CCc1ccccc1 |  | inconclusive: 1.84 µM [cytotoxic, full curve]
35 | O=C(NNc1nc(-c2ccc(F)cc2)cs1)c1ccccc1 |  | inconclusive: 5.8 µM [cytotoxic, full curve, poor fit]
36 | O=C1/C(=C\c2ccco2)SC(=S)N1c1ccccc1 |  | inconclusive: 29.1 µM [rising, single point]
37 | Cn1c(SCc2cc([N+](=O)[O-])cc3c2OCOC3)nnc1-c1ccccn1 |  | inconclusive: 25.9 µM [cytotoxic, single point]
38 | Cc1ccccc1N(C(=O)c1snc(C(N)=O)c1N)C(C(=O)NCC1CCCO1)c1ccc(F)cc1 (stereo not drawn) |  | inconclusive: 13 µM [cytotoxic, partial curve]
39 | COc1ccc(NC(=O)Nc2nccs2)cc1 |  | active: 7.31 µM
40 | Cc1ccc(NNC(=O)c2snnc2C)cc1Cl | inactive: 4.77% | 
41 | CNC(=O)c1nc(C)n(-c2cc(Cl)ccc2Cl)n1 | inactive: 26.8% | 
42 | CCc1cc(=S)n2c([nH]c3ccccc32)c1C#N |  | active: 5.8 µM
43 | CCOc1cc(CNc2ccc(N3CCCC3)cc2)cc(Cl)c1OC |  | inconclusive: 29.1 µM [cytotoxic, single point]
44 | Cc1ccc(NC(=O)COc2ccccc2CNC(C)(C)CC(C)(C)C)cc1 | inconclusive: -48.4% | 
45 | CC(c1nnc(SCC(=O)N(C)C2CCS(=O)(=O)C2)n1-c1ccccc1)N(C)C (stereo not drawn) |  | inconclusive: 29.1 µM [rising, single point]
46 | N#Cc1sc(C(N)=O)c(-c2ccccc2)c1-c1ccccc1 |  | inconclusive: 0.184 µM [cytotoxic, full curve]

Row | Compound | activity change, negative = cytotoxicity | Potency
47 | CC(C)(C)NC(=O)C1CC(=O)OC12CCOC(C)(C)C2 (stereo not drawn) | inactive: 0% | 
48 | O=C(Nc1cccc(Cl)c1Cl)c1snnc1-c1ccccc1 |  | inconclusive: 16.4 µM [cytotoxic, single point]
49 | N#Cc1ccccc1COC(=O)CCC(=O)c1cccs1 |  | inconclusive: 5.17 µM [rising, full curve]
50 | Cc1cccc(N2CCN(C(=O)CN3C(=O)COc4ccc(S(=O)(=O)N5CCOCC5)cc43)CC2)c1C |  | inconclusive: 11.6 µM [cytotoxic, partial curve, poor fit]
51 | Cc1nn(-c2ccccc2)c(Cl)c1/C=N/Nc1nc2ccccc2[nH]1 |  | inconclusive: 16.4 µM [cytotoxic, single point]
52 | O=c1oc2ccc3ccccc3c2cc1-c1nnc(-c2ccccc2)o1 |  | inconclusive: 25.9 µM [cytotoxic, single point]
53 | N#Cc1ccc(CC(C(=O)O)N2Cc3ccccc3C2=O)cc1 (stereo not drawn) |  | inconclusive: 29.1 µM [cytotoxic, single point]
54 | Cc1nc2ccccc2c(=O)n1/N=C/c1ccc(N(C)C)cc1 | inactive: 12.7% | 
55 | Cc1cccc(N2CCN(C(=O)c3[nH]c(C(F)(F)F)nc3-c3ccccc3)CC2)c1C |  | inconclusive: 0.82 µM [cytotoxic, full curve, poor fit]
56 | Cc1cc(C(=O)NC2CCCc3c2cnn3-c2ccc(C)c(C)c2)n(C)n1 (stereo not drawn) |  | inconclusive: 23.1 µM [cytotoxic, single point]
57 | COc1cc(C2c3cc4c(cc3CC3COC(=O)N32)OCO4)cc(OC)c1OC (stereo not drawn) |  | active: 2.06 µM
58 | CC1=C(C(=O)OC2CCCCCC2)C(c2cccc(F)c2F)CC(=O)N1 (stereo not drawn) | inactive: 0% | 
59 | O=C(Nc1cc(SCCO)cc([N+](=O)[O-])c1)c1ccco1 |  | inconclusive: 23.1 µM [cytotoxic, partial curve, poor fit]
60 | CCN1C(=O)C(CC(=O)Nc2ccc(OC)cc2)N(Cc2ccco2)C1=S (stereo not drawn) | inconclusive: -99.3% | 
61 | COc1ccc([C@H]2C[C@H](n3cc(C4CC4)nn3)[C@@H](O)CN2CC2CCCCC2)cc1 |  | inconclusive: 9.2 µM [cytotoxic, partial curve, poor fit]
62 | O=C(c1cc2c(=O)n3ccccc3nc2s1)N1CCOCC1 |  | inconclusive: 18.4 µM [cytotoxic, partial curve, poor fit]
63 | O=c1[nH]c(CCl)nc2cc(-c3ccc(Cl)cc3)sc12 |  | active: 16.4 µM
64 | CCC1CCCCN1C(=O)CSc1nc(-c2ccc(OC)c(OC)c2)cc(C(F)(F)F)n1 (stereo not drawn) |  | inconclusive: 5.8 µM [cytotoxic, full curve]
65 | COc1ccccc1NC(=O)Nc1cnccn1 |  | active: 4.11 µM
66 | Cn1cc(C(=O)NCc2ccc(Cl)cc2)c(=O)c2cc(S(=O)(=O)N3CCOCC3)ccc21 | inactive: 0% | 
67 | O=C(CCN1C(=O)/C(=C/c2ccc3c(c2)OCO3)SC1=S)Nc1ccccc1 |  | inconclusive: 23.1 µM [cytotoxic, single point]
68 | O=C(CSc1ccc(-c2ccc(Br)cc2)nn1)NCC1CCCO1 (stereo not drawn) |  | inconclusive: 20.6 µM [cytotoxic, single point]

Single records (already shown).
Cc1cc(C(=O)NC2CCCc3c2cnn3-c2ccc(C)c(C)c2)n(C)n1 (stereo not drawn) is listed with Potency: inconclusive: 23.1 µM [cytotoxic, single point]
O=C(c1cc2c(=O)n3ccccc3nc2s1)N1CCOCC1 is listed with Potency: inconclusive: 18.4 µM [cytotoxic, partial curve, poor fit]
O=C(Nc1cccc(Cl)c1Cl)c1snnc1-c1ccccc1 is listed with Potency: inconclusive: 16.4 µM [cytotoxic, single point]
